The other results are listed elsewhere or left out.

The target in this assay is T1, OsSMF1 (Oryza sativa, UniProt Q6ZLB0 1-436).
T1 sequence: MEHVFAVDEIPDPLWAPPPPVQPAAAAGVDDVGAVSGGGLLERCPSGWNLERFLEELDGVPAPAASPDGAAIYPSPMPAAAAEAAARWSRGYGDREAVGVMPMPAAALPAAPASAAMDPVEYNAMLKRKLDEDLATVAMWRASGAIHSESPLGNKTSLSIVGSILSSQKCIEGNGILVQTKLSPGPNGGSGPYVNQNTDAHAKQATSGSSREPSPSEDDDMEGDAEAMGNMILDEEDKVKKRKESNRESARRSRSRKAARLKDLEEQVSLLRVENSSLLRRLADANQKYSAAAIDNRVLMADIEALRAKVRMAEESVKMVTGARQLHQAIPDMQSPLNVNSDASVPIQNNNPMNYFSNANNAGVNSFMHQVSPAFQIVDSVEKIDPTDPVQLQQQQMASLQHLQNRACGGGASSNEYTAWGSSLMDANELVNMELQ
In words: protein-binding microarray (RPBM); PBS, 2% BSA, 51.3 ng/ul salmon testes DNA, 50 uM zinc acetate, 200 nM TF, 25 C, 1 h; high values mean tight binding. The note with it: protein: recombinant; tags: N-terminal polyhistidine and DsRed monomer fusion (pET32a); chain copies: 2; label: CyDye5-dUTP incorporated in the synthesized complementary strand; 3' TTTTT single-stranded linker to array surface; dsDNA, one strand shown. In a few lines: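 An Axon 4000B scanner gave the binding signal as per-feature fluorescence intensity in arbitrary units. This followed washing of a custom Agilent array that had been incubated for 1 h at 25 °C with 200 nM protein in PBS, 2% BSA, salmon testes DNA and 50 µM zinc acetate. The proteins were transcription factors fused at the N-terminus to polyhistidine and DsRed, expressed in E. coli BL21-CodonPlus and purified on Ni–NTA.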
Consider “TTAGTGAACTGAAAGTGTTACACGTCATGTAAACGAATTCCGGAGTCACCTAGTGCAG”, for which the binding signal was 7280 fluorescence intensity (a.u.).

For “TGGTGTAGGGTTATGATTGGATGAGTAGTGGAGGTAGGTACGGAGTCACCTAGTGCAG”, the binding signal was 3680 fluorescence intensity (a.u.). As to “TTTCTTCCTAAGATGACGAAACATTCAATGGTGTGTGGACCGGAGTCACCTAGTGCAG”, the binding signal is 3340 fluorescence intensity (a.u.). Consider “CGTGTGGTTGTGGGGATGGACGCAGCTAGAGCATGGCGTGCGGAGTCACCTAGTGCAG”, for which the binding signal was 5170 fluorescence intensity (a.u.). As for “ATTATAGGTCCAGCTAAGTTGGCCCTGGTATATATATTGGCGGAGTCACCTAGTGCAG”, the binding signal is 3980 fluorescence intensity (a.u.).

With “ATGACGTGACATTGACGTGGCGCTTACGTGGCAATTCGACCGGAGTCACCTAGTGCAG”, the binding signal is 25600 fluorescence intensity (a.u.). “GTATCTCACGAGATAGGTAGGTACCTGAGTGCCTGAATTTCGGAGTCACCTAGTGCAG”: the binding signal is 24800 fluorescence intensity (a.u.). With “TTGCTGTCTTGCGTGTTCATGCTGCCCCGCGGGCGTTGAGCGGAGTCACCTAGTGCAG” the figure was 3530 fluorescence intensity (a.u.). “TGCCGTCTTCAACCTAGATCGACACGCATACACGCTAGGGCGGAGTCACCTAGTGCAG”: the binding signal was 5090 fluorescence intensity (a.u.). As for “ACTCATCTTGCCGAACAAACTTTCTTTTGACGCCATCGCGCGGAGTCACCTAGTGCAG”, the binding signal was 3460 fluorescence intensity (a.u.).

Turning to “CTTTGGTGGGAGATGGATCGCAATGTCATGTGTCCCTTCTCGGAGTCACCTAGTGCAG”, the binding signal was 4350 fluorescence intensity (a.u.).

In the case of “GCCCCGCGTCTCCCTCCGCCGCAGCAGCCTCGTCAGCTCGCGGAGTCACCTAGTGCAG”, the binding signal is 6090 fluorescence intensity (a.u.). For “CTTTCTCTCGATGGTGATTCAGCAGGGTAGGGAAGCTCAACGGAGTCACCTAGTGCAG” the value was 3460 fluorescence intensity (a.u.). With “CCGGCGTGGCGACGTCAGTACTCTCTTCTGCTTCATTTCTCGGAGTCACCTAGTGCAG” the figure was 7490 fluorescence intensity (a.u.); with “TGTGCTTCAAATCTTCTTCTTTGTCATGCGTCACTGCAGGCGGAGTCACCTAGTGCAG”, 5200 fluorescence intensity (a.u.). For “TGCCGCCACATGCATCCAAGCCGCCTAAGCCGGCGTGCCACGGAGTCACCTAGTGCAG” the value was 3350 fluorescence intensity (a.u.). Consider “GCTTGCGAGATCATCCCTGCCTGCCTGTCCCTTTCCTGCACGGAGTCACCTAGTGCAG”, for which the binding signal was 3220 fluorescence intensity (a.u.). “TACGTTTTCGTATGCGATCAATGACACGACCCTTATGGATCGGAGTCACCTAGTGCAG”: the binding signal is 3560 fluorescence intensity (a.u.).

Turning to “AGTTTTGTGGTTTCATGGCATGGCTGACGGGGTGGTACTGCGGAGTCACCTAGTGCAG”, the binding signal is 5100 fluorescence intensity (a.u.). “CTCCATCTAAAGTTGGTGAAAAGCTATATAACCGTTGACTCGGAGTCACCTAGTGCAG”: the binding signal was 11800 fluorescence intensity (a.u.). For “CGTGACGCCTACGTGGCTAATACTCTAAATTAGTCTATGTCGGAGTCACCTAGTGCAG” the value was 15800 fluorescence intensity (a.u.); for “ATTGTCATTGACTTGTCAACAACTAGTTATTGTACATGCACGGAGTCACCTAGTGCAG”, 3250 fluorescence intensity (a.u.). Consider “GATGATTAACGAGTCACTGTTACTACTACTTTCCCACCCTCGGAGTCACCTAGTGCAG”, for which the binding signal was 4490 fluorescence intensity (a.u.).

For the sequence “TCCATTGAGGCAATAAGTTTCACCGAGGACCCTATTTTGTCGGAGTCACCTAGTGCAG”, the binding signal was 10900 fluorescence intensity (a.u.). As for “TTCTTCCTCCTCCTCCTACAGTGGACTCGTGGCTGGCAGCCGGAGTCACCTAGTGCAG”, the binding signal was 3200 fluorescence intensity (a.u.). With “CAGATCCTCTGCAGTACTGCTGATGCAATAGCAGTGGATGCGGAGTCACCTAGTGCAG”, the binding signal is 4820 fluorescence intensity (a.u.). On to “TGGGATGCCCAGTATGGTTGGCGAGTTGACATGGCTACCGCGGAGTCACCTAGTGCAG”, for which the binding signal is 3600 fluorescence intensity (a.u.).

“ATCGAACGTTTGGACACATGTAAATAGTATTAAACATAGACGGAGTCACCTAGTGCAG”: the binding signal is 23400 fluorescence intensity (a.u.). Take “ATTGAGCCCGCCGCAAGGGAGTCTGGCGTGTCAGCGAGAGCGGAGTCACCTAGTGCAG”: the binding signal is 4360 fluorescence intensity (a.u.). Take “GCAACCAAGCTGCCGGCCGGCCTGACGCATCCACAGACCCCGGAGTCACCTAGTGCAG”: the binding signal was 3640 fluorescence intensity (a.u.). “CGTGCCCTCCATGTCCAAGAACGTCGATGGCGCGCGACCGCGGAGTCACCTAGTGCAG”: the binding signal is 26000 fluorescence intensity (a.u.). Turning to “TCTCCCTGATTGGTGGTGTTTGTTTGAAAAGAAAGTTTATCGGAGTCACCTAGTGCAG”, the binding signal was 19900 fluorescence intensity (a.u.).

Take “ACGAGATTACCACCGCAATATGGGCAATATGGAAAATATTCGGAGTCACCTAGTGCAG”: the binding signal was 16900 fluorescence intensity (a.u.). As for “GTAACTGAGTCAATCCAGCAACGCATTGACCATATGAGCTCGGAGTCACCTAGTGCAG”, the binding signal was 3910 fluorescence intensity (a.u.). Turning to “TTATTAACAATATTCCAACAATTTGGGACAAGTTGTTTGACGGAGTCACCTAGTGCAG”, the binding signal is 3160 fluorescence intensity (a.u.).

For the sequence “CCCACACATCGCTGTGTCTCTGGACGCCATGACAAAACAACGGAGTCACCTAGTGCAG”, the binding signal is 3540 fluorescence intensity (a.u.). Regarding “TCCTGTTGAACGACGGCGCCAGCCACTCTGGCGCCCCAAACGGAGTCACCTAGTGCAG”, the binding signal was 3270 fluorescence intensity (a.u.). With “TCTCGTTTGCACTGATTTTGTAAGTTGGGGTCATGTTGTACGGAGTCACCTAGTGCAG” the figure was 4050 fluorescence intensity (a.u.); with “CTGGCACGTAAGCGTTACCGTGGCATGCCACGTCATCTCACGGAGTCACCTAGTGCAG”, 39600 fluorescence intensity (a.u.).

On to “CCCTTGTCCTTTTGTCGCCGTCGACGAGGACGTGCATACTCGGAGTCACCTAGTGCAG”, for which the binding signal was 3520 fluorescence intensity (a.u.). “TGATGGGGTTCGGGCTGCTGACGCGCACCATCTCGTCGGGCGGAGTCACCTAGTGCAG”: the binding signal is 7610 fluorescence intensity (a.u.). On to “TCATTAGCACATGTGGGTTACTGTAGCACTTATGGCTAATCGGAGTCACCTAGTGCAG”, for which the binding signal was 11400 fluorescence intensity (a.u.).

The record behind these values is article PMC7819943, “Rice protein-binding microarrays: a tool to detect cis-acting elements near promoter regions in rice”.
